In patent US6518063 one finds binding data, which are given here for three substances.

The chains behind the UniProt entries cited, without tags or fusion partners. Where a name states a change or a piece, a line headed by the entry shows the natural chain unless it says otherwise. A line that says so, or that is headed by a name, gives the form on record, which may keep a tag or linker.
histidine-tagged Cbfβ (Q08024, form named): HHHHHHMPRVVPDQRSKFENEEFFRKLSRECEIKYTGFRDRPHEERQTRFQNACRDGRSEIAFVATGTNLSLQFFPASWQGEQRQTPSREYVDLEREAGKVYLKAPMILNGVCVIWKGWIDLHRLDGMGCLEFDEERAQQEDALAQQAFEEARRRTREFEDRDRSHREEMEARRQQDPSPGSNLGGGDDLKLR
UniProt Q03347: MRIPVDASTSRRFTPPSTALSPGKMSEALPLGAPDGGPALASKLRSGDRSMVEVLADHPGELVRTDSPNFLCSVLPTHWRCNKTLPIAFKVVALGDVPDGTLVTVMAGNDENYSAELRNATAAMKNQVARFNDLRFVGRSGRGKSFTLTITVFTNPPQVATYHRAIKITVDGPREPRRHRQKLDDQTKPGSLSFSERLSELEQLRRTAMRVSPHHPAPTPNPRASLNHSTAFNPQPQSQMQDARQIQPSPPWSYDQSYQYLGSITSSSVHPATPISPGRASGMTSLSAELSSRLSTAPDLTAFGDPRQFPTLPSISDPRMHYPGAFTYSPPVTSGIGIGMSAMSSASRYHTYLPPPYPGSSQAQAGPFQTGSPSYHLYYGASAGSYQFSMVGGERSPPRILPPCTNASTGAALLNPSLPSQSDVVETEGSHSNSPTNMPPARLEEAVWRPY
UniProt Q08775: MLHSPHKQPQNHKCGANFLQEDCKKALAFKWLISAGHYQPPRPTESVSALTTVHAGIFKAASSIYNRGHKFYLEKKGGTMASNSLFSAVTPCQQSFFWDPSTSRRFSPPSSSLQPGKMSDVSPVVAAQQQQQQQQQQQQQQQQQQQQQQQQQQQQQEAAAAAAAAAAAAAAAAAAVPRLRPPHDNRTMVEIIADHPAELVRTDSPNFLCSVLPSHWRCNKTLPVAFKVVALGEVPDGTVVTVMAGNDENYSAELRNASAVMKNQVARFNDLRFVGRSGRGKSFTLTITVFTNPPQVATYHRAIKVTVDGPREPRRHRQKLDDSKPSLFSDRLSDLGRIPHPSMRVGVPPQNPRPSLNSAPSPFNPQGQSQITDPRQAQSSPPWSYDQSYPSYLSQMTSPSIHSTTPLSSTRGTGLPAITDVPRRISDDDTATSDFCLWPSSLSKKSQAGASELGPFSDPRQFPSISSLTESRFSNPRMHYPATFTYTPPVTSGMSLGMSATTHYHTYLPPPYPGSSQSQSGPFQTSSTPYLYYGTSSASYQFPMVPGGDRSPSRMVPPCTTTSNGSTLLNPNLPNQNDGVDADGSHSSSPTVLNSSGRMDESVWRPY

No constants are given. Whether binding was seen depends on the method and setting. Some binding calls cover weakened binding; strength is not graded here.

Assay [1] concerns the target histidine-tagged Cbfβ (UniProt Q08024). Put plainly: EMSA (DNA-binding assays).
The target is the same in assay [2]. The assay can be described thus: EMSA with labeled OSE2 oligonucleotide, supershift on addition of Cbfβ. Background: In EMSA bound probe runs differently from free probe, usually more slowly.
Assay [3] has the same target. The assay can be described thus: EMSA with labeled OSE2 oligonucleotide, with Cbfβ (FIG. 18A).
In assay [4] the target is glutathione-S-transferase (GST)-Cbfβ fusion protein [GST: P08515]. The assay can be described thus: in vitro binding assay, GST-Cbfβ on glutathione-agarose beads, SDS-PAGE and autoradiography.

As for “His-Cbfa2 protein (from UniProt Q03347 1-451)”, the binding entry with histidine-tagged Cbfβ [1], with histidine-tagged Cbfβ [2] and with histidine-tagged Cbfβ [3] was “binds” each time.

Turning to “in vitro translated ^35S-labeled Cbfa2 (from UniProt Q03347 1-451)”, the binding result in assay [4] was “binds”.

“Δ.runt.PST deletion mutant containing only the runt and PST domains of Osf2 (His-tagged) (from UniProt Q08775 188-607)”: the binding result in the assay with histidine-tagged Cbfβ [2] and with histidine-tagged Cbfβ [3] was “binds” in each case.
